The supplement of paper PMC12823440, “Inhibitors supercharge kinase turnover through native proteolytic circuits” (Nature, 2025)
Where a name gives a salt, the structure may show the parent alone. The list shows a part of the results. Hit calls seldom repeat between salt and free forms of one compound.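 In K562 cells expressing nanoluciferase-fused kinases, luminescence was recorded at 4 h intervals between 2 and 18 h, normalized as percent of control with DMSO at 100% and a positive control at 0%. A significant (2 sigma) signal drop marks a time point as decreased. The authors' rule for a hit is not shown and takes in more than the number of time points.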

Protein sequences, listed by entry. Tags and fused reporters are not part of them.
UniProt P21802, whole entry, looked up: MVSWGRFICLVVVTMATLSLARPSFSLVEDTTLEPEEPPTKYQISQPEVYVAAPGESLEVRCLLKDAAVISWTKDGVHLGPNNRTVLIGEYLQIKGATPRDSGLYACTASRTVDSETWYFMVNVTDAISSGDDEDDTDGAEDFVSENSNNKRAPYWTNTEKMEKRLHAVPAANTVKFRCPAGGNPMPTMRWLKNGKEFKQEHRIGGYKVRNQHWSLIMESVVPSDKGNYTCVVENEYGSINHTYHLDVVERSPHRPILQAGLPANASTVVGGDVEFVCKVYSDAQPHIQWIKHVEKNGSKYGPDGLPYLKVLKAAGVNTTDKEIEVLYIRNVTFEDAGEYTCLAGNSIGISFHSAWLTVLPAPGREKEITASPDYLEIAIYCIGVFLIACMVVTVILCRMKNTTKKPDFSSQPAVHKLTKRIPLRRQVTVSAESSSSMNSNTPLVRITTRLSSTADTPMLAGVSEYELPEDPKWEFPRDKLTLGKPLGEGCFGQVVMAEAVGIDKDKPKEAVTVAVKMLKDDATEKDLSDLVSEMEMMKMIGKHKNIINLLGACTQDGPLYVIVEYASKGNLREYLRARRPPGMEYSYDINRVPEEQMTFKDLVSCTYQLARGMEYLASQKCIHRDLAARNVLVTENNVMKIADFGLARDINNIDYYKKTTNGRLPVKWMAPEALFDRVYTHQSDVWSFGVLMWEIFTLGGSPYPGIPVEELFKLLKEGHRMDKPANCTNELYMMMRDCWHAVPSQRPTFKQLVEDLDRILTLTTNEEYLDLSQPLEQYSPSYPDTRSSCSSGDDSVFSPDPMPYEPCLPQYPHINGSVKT

Each molecule was assayed against FGFR2 (UniProt P21802) (assay: kinase-Nluc reporter destabilization hit call (1 = scored as downregulated) (binary); higher = compound decreases kinase abundance). Conditions: K562; 2-18 h.

kinase-Nluc reporter destabilization hit call, inactive:
Cc1[nH]c(/C=C2\C(=O)Nc3ccccc32)c(C)c1CCC(=O)O [(Z)-Orantinib] (10 µM) 0, NC(=O)c1ccc(-c2nc(-c3ccc4c(c3)OCCO4)c(-c3ccccn3)[nH]2)cc1 (10 µM) 0, CCNc1nc(Nc2cc(F)c(C(=O)N3CCOCC3)cc2OC)ncc1C(F)(F)F [GNE-7915 (tosylate)] (10 µM) 0, Cc1cc(O)c2c(c1)C(=O)c1cc(O)cc(O)c1C2=O [Emodin] (10 µM) 0, Cc1ccc(C(=O)Nc2ccc(Oc3cc4cnn(C)c4cc3-c3cn[nH]c3)c(F)c2)c(=O)n1-c1ccc(F)cc1 [Merestinib dihydrochloride] (2.5 µM) 0, C=CC(=O)Nc1cc(C)ccc1Nc1nc(Nc2cc(OC)ncc2C)ncc1C(F)(F)F (10 µM) 0, Oc1cc(O)c2cc(O)c(-c3cc(O)c(O)c(O)c3)[o+]c2c1 [Delphinidin (chloride)] (10 µM) 0, O=C1NC(=O)/C(=C\c2cccc(C(F)(F)F)c2)S1 (2.5 µM) 0, Cc1nc2sccn2c(=O)c1CCN1CCC(=C(c2ccccc2)c2ccc(F)cc2)CC1 (10 µM) 0, CCc1cc2c(cc1N1CCC(N3CCOCC3)CC1)C(C)(C)c1[nH]c3cc(C#N)ccc3c1C2=O [Alectinib (Hydrochloride)] (2 µM) 0, FC(F)(c1ccc2ncccc2c1)c1nnc2ccc(-c3ccncc3)nn12 (10 µM) 0
